Paper PMC12258416
No constants are given. Whether binding was seen depends on the method and setting.

Sequences of proteins named here, by UniProt entry; tags and fusion partners are left off. Residues count along the entry.
UniProt O60603, residues 636-784: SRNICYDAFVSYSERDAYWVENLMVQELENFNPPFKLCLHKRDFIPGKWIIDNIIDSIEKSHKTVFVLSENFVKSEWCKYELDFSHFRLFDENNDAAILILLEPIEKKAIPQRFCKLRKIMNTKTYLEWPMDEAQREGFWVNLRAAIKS

Tests used:
[1] = molecular target: T1, TIR domain of human TLR1 (TLR1TIR) (human) (UniProt Q15399); experiment: NMR titration; 1H,15N-HSQC with Zn: equimolar mix of TLR1TIR and TLR2TIR (100 uM each) titrated with 50 and 100 uM zinc; and 100 uM TLR1TIR:Zn titrated with TLR2TIR up to 1:1; both purified
T1 sequence: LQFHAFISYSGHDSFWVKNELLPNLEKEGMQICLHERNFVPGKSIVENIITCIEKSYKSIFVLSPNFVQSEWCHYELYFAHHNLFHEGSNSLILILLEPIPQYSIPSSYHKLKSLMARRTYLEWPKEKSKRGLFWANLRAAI

[2] = molecular target: T1, TIR domain of human TLR1 (TLR1TIR) (human); experiment: NMR titration; 1H,15N-HSQC of an equimolar mix of TLR1TIR and TLR2TIR (100 uM each) without Zn, compared with each protein alone; 30 mM MOPS, 64.4 mM KCl, 5.3 mM NaCl, 0.5 mM MgCl2, 1 mM TCEP, pH 7.4, 303 K; both purified

## TIR domain of TLR2 (TLR2TIR), wild type, 636-784 fragment of human TLR2 (from UniProt O60603 636-784) (domain or fragment)
[1]
  binding: no binding (tested: 100 μM each)
[2]
  binding: no binding (tested: 100 μM each)
